Laboratory results published in patent US20020183256A1 (priority 2000, published 2002).

Experiment: general procedure: solution-phase peptide synthesis; EDC hydrochloride / HOBt, Hünig's base; hydroxysuccinimide ester
Conditions: bis-trifluoroacetate

Which step yield (coupling step) does the source give for “20-O-[L-Prolyl-L-leucyl-glycyl-L-leucyl-L-histidyl-L-valyl]-camptothecin bis-trifluoroacetate” here?
Its step yield is 77%.

And the step yield (late stage modification step)?
The step yield was 91%.

For “N-tert-butoxycarbonyl-L-prolyl-L-leucyl-glycyl-L-leucin”, which step yield (coupling step) is on record?
The step yield was 42%.
